Test results published in publication PMC8290069.
These are yes or no findings as the source states them, for the method shown. Binding seen in cells or lysates may run through a third protein. Some entries that bind do so weakly or less than the wild type.

Amino acid sequences for entries named in this document (tags omitted).
UniProt E9Q2Z1: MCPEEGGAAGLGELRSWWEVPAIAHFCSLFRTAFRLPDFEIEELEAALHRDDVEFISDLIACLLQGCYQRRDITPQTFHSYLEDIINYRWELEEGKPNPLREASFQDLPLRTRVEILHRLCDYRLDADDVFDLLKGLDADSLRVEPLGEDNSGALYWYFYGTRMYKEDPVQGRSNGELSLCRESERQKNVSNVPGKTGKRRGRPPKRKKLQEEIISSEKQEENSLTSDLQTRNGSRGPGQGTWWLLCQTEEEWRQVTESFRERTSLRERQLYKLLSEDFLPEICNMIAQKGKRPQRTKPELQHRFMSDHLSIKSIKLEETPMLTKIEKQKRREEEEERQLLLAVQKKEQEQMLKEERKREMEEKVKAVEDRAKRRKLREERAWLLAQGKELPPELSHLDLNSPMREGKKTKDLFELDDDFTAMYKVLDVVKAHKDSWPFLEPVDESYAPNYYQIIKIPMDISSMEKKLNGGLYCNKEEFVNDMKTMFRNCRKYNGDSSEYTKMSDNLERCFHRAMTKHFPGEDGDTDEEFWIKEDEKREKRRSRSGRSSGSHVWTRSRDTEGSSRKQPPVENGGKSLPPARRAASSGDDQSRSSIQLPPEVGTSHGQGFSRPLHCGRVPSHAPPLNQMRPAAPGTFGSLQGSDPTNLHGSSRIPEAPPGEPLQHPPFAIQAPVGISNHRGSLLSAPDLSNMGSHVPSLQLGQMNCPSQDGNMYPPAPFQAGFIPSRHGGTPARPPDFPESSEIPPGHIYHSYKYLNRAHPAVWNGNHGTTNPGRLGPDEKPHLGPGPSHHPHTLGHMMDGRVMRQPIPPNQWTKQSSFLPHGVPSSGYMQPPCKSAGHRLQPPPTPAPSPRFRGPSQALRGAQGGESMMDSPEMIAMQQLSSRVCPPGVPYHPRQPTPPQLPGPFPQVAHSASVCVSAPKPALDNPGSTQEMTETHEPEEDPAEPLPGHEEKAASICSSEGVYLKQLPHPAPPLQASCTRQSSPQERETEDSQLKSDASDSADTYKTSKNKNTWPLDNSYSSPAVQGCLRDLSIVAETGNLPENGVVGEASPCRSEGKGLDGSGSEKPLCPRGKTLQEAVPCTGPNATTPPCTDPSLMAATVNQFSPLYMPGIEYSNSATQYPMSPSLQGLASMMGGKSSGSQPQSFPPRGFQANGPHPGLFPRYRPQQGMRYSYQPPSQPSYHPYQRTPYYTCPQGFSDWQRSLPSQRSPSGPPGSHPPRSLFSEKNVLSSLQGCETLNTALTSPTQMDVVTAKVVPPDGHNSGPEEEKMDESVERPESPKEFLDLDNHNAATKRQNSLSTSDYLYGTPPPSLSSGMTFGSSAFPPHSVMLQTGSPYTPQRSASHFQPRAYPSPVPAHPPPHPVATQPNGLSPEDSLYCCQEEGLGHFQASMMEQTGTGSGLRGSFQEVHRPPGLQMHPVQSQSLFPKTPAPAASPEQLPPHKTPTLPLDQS
UniProt Q6PGB8: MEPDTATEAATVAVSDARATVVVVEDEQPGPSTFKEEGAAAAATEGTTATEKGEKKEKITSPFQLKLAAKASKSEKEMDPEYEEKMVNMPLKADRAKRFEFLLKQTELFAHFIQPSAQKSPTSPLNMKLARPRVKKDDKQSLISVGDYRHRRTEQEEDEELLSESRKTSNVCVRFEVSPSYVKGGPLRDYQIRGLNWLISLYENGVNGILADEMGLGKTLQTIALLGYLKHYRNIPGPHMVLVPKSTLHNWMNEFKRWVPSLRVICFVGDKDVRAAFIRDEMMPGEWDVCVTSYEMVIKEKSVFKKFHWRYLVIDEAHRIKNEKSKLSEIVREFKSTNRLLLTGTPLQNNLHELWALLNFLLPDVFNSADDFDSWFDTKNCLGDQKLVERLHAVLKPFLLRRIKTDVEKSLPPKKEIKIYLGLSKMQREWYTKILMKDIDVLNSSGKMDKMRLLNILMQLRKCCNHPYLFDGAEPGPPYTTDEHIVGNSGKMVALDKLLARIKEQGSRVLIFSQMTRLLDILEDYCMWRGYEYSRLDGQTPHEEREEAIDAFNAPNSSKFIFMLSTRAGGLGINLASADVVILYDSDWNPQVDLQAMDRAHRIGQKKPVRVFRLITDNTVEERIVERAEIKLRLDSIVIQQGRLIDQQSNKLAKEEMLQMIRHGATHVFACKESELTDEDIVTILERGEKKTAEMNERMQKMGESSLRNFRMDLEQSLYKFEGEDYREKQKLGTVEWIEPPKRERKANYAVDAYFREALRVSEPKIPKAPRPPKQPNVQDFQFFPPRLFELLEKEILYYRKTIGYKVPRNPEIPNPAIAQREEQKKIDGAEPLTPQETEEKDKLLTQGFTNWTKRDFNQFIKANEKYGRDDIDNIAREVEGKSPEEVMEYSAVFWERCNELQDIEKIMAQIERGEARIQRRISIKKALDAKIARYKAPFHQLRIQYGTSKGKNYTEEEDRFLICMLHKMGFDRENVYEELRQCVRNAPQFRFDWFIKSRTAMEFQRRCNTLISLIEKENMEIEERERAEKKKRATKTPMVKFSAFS

Molecular target: CECR2 (mouse (endogenous in cerebellum)) (UniProt E9Q2Z1)
Assay: co-IP; 500 ug P21 cerebellar lysate of WT or Ex6DEL mice, 1 ug anti-Snf2l or anti-Cecr2 antibody (control rabbit IgG) overnight at 4°C, protein A/G magnetic beads, 5 washes in 0.3% triton-X in PBS, elution with 0.1 M glycine pH 2.5, immunoblot

Snf2l protein (wild type, encoded by Smarca1) (from UniProt Q6PGB8 1-1046)
binding: binds
